This assay can be described thus: qHTS Assay for Lipid Storage Modulators in Drosophila S3 Cells.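 As to cell number change: cells counted by Cell Tracker Red CMTPX staining in the red channel.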 To be noted: BODIPY lipid droplet fluorescence, 18-24 h; for cell number change: measured here: cell count max response, cells fed with added oleic acid. In outline:
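Drosophila S3 cells got compounds at several concentrations plus oleic acid (400 uM solution). Laser-scanning cytometry with 488 nm excitation read lipid droplets at 500-530 nm and cells at 575-640 nm. Percent activity was relative to 20 uM Triacsin C.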
On the technique in general: Quantitative high-throughput screening tests each substance at several concentrations.

Setting [1] is: measured here: cell number channel AC50, cells fed with added oleic acid.
The mark [2] stands for this setting: measured here: lipid fluorescence (Fed channel) AC50, cells fed with added oleic acid.

The other results are listed elsewhere or left out. Shown are side measurements of this screen, not its main read-out; they come without a call. Most of these compounds were active or inconclusive in the main read-out, so they are no random draw. Words in brackets tell the shape of the fitted curve; partial curves, single points and poor fits give uncertain potencies.

In the case of `COCCN(C(=O)CSc1nnc(C)n1Cc1ccccc1)c1c(N)n(CC(C)C)c(=O)[nH]c1=O`, the cell number change was -47.1%. For the same compound, the AC50 – broadly, the concentration at which the activity in the assay is half-maximal – under setting [1] was 32.6 µM [falling, single point]. For the same compound, the AC50 under setting [2] is 25.9 µM [falling, single point].

For the compound `CCC1(c2ccccc2)C(=O)NCNC1=O`, under setting [2], the concentration at half-maximal activity (AC50) was 29.1 µM [falling, single point].

Regarding `COc1ccc(C(C)=O)c(Oc2nc(CN3CCOCC3)nc3scc(-c4cccs4)c23)c1`, the cell number change worked out at 0.132%.

As to `COc1ccc(-c2cc(-c3nnc(COC(=O)c4ccncc4)o3)c3ccccc3n2)cc1OC`, the cell number change amounted to 3.63%. Besides, the half-maximal activity concentration (AC50) under setting [2] was 1.64 µM [rising, partial curve, poor fit].

With `Nc1nnc(SCC(=O)OCC(=O)c2ccccc2Br)s1`, the cell number change was -4.08%.

On to `CC(NCc1ccccc1O)c1ccccc1` (configuration not stated), for which the cell number change is -106%. For the same compound, under setting [1], the AC50 is 25.9 µM [falling, partial curve]. The AC50 under setting [2] is 29.1 µM [falling, partial curve].

Turning to `C/C(=N/N=C/c1ccc(N(C)C)cc1)c1ccccc1`, the AC50 under setting [2] was 0.092 µM [rising, full curve, poor fit].

Turning to `CCOC(=O)c1cc(-c2ccccc2)nc2nc(N(CC)CC)sc12`, the cell number change was -25.7%. Also, the AC50 under setting [2] is 6.51 µM [rising, single point].

Regarding `O=[N+]([O-])c1ccc2c(c1)C(N1CCOCC1)/C(=C/COc1ccc3ccccc3c1Br)O2` (configuration not stated), the AC50 is, setting by setting: under setting [1], 1.46 µM [rising, partial curve]; under setting [2], 29.1 µM [rising, single point].

With `COc1cccc(/C=C/C(=O)c2ccc3c(c2)OCCO3)c1OC`, the cell number change is -3.65%. The AC50 under setting [2] is 29.1 µM [falling, single point].

Turning to `COc1ccc(CNC(=O)COC(=O)CCCOc2ccc(Cl)cc2Cl)cc1OC`, the AC50 under setting [1] is 6.51 µM [rising, single point].

Turning to `Cc1cc(C)cc(NC(=O)CN2CCC(NC(=O)c3cccc(F)c3)CC2)c1`, the cell number change was determined as 57.7%. In addition, the AC50 under setting [1] was 16.4 µM [rising, single point].

Regarding `CN1CCN(C(=O)c2sc(=S)n(-c3ccccc3)c2N)CC1`, the cell number change was -89.3%. The AC50 under setting [1] is 20.6 µM [falling, partial curve]. Further, the AC50 under setting [2] is 3.26 µM [falling, full curve].

In the case of `CC(CNC(=O)c1ccccc1Cl)c1ccccc1` (configuration not stated), the cell number change is -30.6%. The AC50 under setting [1] was 0.00411 µM [falling, full curve, poor fit]. For the same compound, under setting [2], the AC50 is 23.1 µM [falling, partial curve, poor fit].

As for `CCN(CC)S(=O)(=O)c1ccc(C)c(N=C=S)c1`, the cell number change worked out at 11.5%. Under setting [2], the AC50 is 4.11 µM [rising, partial curve, poor fit].

On to `COCc1c(C(=O)N/N=C\c2ccccn2)nnn1-c1nonc1N`, for which the cell number change is -0.435%. In addition, the concentration at half-maximal activity (AC50) under setting [2] was 2.91 µM [rising, single point].

`CC(C)(C)NC(=O)CN(Cc1ccco1)C(=O)CCC(=O)Nc1nccs1`: the cell number change turned out to be 23.4%. The half-maximal activity concentration (AC50) under setting [1] was 0.00411 µM [rising, full curve, poor fit]. In addition, the AC50 under setting [2] is 29.1 µM [falling, single point].

`CN(Cc1nc(-c2ccc(Cl)cc2)no1)C(=O)c1ccc2c(c1)OCO2`: the cell number change turned out to be 36.8%. In addition, the AC50 under setting [1] was 13 µM [rising, single point].

With `CCOC(=O)c1nn(-c2ccc(C)cc2)c2nc(Nc3ccccc3)cc(=O)n12`, the cell number change worked out at 4.33%.

For the compound `COc1cccc(C(=O)NC2C(=O)N3C(C(=O)O)=C(COC(C)=O)CSC23)c1` (configuration not stated), the cell number change is -30%. Besides, under setting [1], the AC50 is 3.66 µM [falling, full curve, poor fit]. Further, the AC50 under setting [2] is 5.17 µM [falling, full curve, poor fit].

As to `Cc1ccc(C(=O)Nc2ccc3c(c2)OCCO3)o1`, the cell number change came out at 40.8%. Further, under setting [1], the AC50 is 10.3 µM [rising, single point].

Regarding `CCOc1cc(-c2cc(-c3ccc(NC(C)=O)cc3)nc(N)c2C#N)ccc1O`, the cell number change is -10.2%. In addition, the AC50 under setting [2] is 29.1 µM [falling, single point].

With `Cc1noc(C)c1Cc1c(Cl)cccc1Cl`, the cell number change is -27.8%.

For `O=C(CSc1nc(-c2ccccc2)c(-c2ccccc2)o1)N1CCOCC1`, the cell number change is -6.9%. Also, the AC50 under setting [2] was 6.51 µM [falling, single point].

On to `O=C(CC1C(=O)NCCN1Cc1ccoc1)NCc1cccc(OC(F)(F)F)c1` (configuration not stated), for which the cell number change is 16.3%. Further, under setting [2], the half-maximal activity concentration (AC50) was 0.651 µM [rising, full curve, poor fit].

With `Cc1c(C(=O)OC/C(O)=C(\C#N)c2nc3ccccc3[nH]2)oc2ccccc12`, the cell number change is -22.8%. Also, the AC50 under setting [2] is 16.4 µM [falling, partial curve].

Take `CCCCn1c(N)c(N(CC(C)C)C(=O)CC2OC(=O)c3ccccc32)c(=O)[nH]c1=O` (configuration not stated): the cell number change is -25%. For the same compound, the AC50 under setting [1] was 3.26 µM [falling, full curve, poor fit]. Moreover, the AC50 under setting [2] is 29.1 µM [rising, single point].

Turning to `Cc1ccc(C2CC(=O)Nc3cc4c(cc32)OCCO4)s1` (configuration not stated), the cell number change was -154%. Also, the AC50 under setting [1] is 25.9 µM [falling, partial curve].

Turning to `CN(C(=O)CSc1ncnc2sccc12)C1CCS(=O)(=O)C1` (configuration not stated), the cell number change is -20.7%. Further, the AC50 under setting [2] is 0.231 µM [falling, full curve, poor fit].

For the compound `COc1ccc(C2C=C(c3ccc(Br)cc3)Nc3nc(N4C(=O)CCC4=O)nn32)cc1` (configuration not stated), the cell number change was 24%.

Regarding `CN(C)c1ccc(/C=C2/NC(=O)NC2=O)cc1`, the cell number change was -5.55%.

On to `O=C(NCCc1ccccc1F)/C(=C/c1cccnc1)NC(=O)c1ccccc1`, for which the cell number change is 8.4%. Under setting [2], the AC50 was 0.164 µM [rising, partial curve, poor fit].

Take `COc1ccc(NC(=O)CSCC(=O)Nc2cc(Cl)ccc2N2CCOCC2)cc1`: the cell number change is -20.3%.

Turning to `CCOc1ccc(S(=O)(=O)N2CCCCC2)cc1NC(=O)CSCc1c(C)noc1C`, the cell number change turned out to be 14.4%. In addition, the half-maximal activity concentration (AC50) under setting [1] is 6.51 µM [rising, single point]. In addition, the AC50 under setting [2] was 3.66 µM [rising, partial curve, poor fit].

As to `C[C@@H]1CC[C@H](O)/C=C/C(=O)O[C@H](C)CC[C@H](O)/C=C/C(=O)O1`, the AC50 under setting [2] is 6.51 µM [falling, partial curve].

On to `O=C(Nc1nnc(-c2ccc3c(c2)OCCO3)o1)c1ccc(Cc2ccccc2)cc1`, for which the cell number change is -6.26%. Besides, the AC50 under setting [2] is 0.291 µM [falling, full curve].

For `CCC(=O)N1c2ccccc2NC2=C(C(=O)CCC2)C1c1cccnc1` (configuration not stated), the cell number change is 4.23%. Also, the concentration at half-maximal activity (AC50) under setting [2] was 3.26 µM [rising, single point].

With `COC(=O)CCc1nc2cc(Cl)ccc2n(Cc2ccccc2)c1=O`, the cell number change was found to be 109%.

Turning to `CCOC(=O)n1n[n+]([O-])c2ccccc21`, the cell number change was -17.3%. In addition, under setting [2], the AC50 is 6.51 µM [falling, partial curve].

Turning to `Cc1cc(C)nc(N2CCC(C(=O)Nc3nnc(C)s3)CC2)n1`, the cell number change amounted to 4.31%.

`COc1ccc(N2C(=O)CC(N3CCN(c4ccccc4OC)CC3)C2=O)cc1` (configuration not stated): the cell number change came to 8.21%. Moreover, the AC50 under setting [2] was 6.51 µM [rising, single point].

For the compound `CCOc1ccc(CNC(=O)CCC(=O)N2CCSc3ccccc32)cc1`, the cell number change is 22.5%. Further, the AC50 under setting [2] is 1.84 µM [rising, full curve].

With `Cc1cccc(C)c1OCCCN1CCCC1`, the cell number change is -32.3%. Under setting [1], the AC50 was 0.82 µM [falling, full curve]. Besides, the AC50 under setting [2] was 0.731 µM [falling, full curve].

Turning to `O=S(=O)(Nc1ccc(Cc2ccncc2)cc1)c1ccc(Cl)s1`, the cell number change amounted to 12.8%. Besides, under setting [2], the AC50 was 20.6 µM [rising, single point].

Regarding `CCCn1c(=O)[nH]c(=O)c2c1nc(-c1cc([N+](=O)[O-])ccc1Cl)n2CCOC`, the cell number change is -3.85%. Also, the concentration at half-maximal activity (AC50) under setting [1] is 0.82 µM [rising, partial curve, poor fit]. Also, under setting [2], the AC50 is 6.51 µM [falling, partial curve].

As for `CN1CCC(OC(=O)c2ccc(Cl)cc2Cl)CC1`, the cell number change was 2.49%. Further, under setting [2], the AC50 was 23.1 µM [rising, single point].

As for `CCc1nc(SCC(=O)Nc2ccc(OC)cc2[N+](=O)[O-])n[nH]1`, the cell number change was 11.6%. In addition, under setting [2], the AC50 is 3.66 µM [rising, single point].

Regarding `Cc1ccc(Oc2nc(-c3ccccn3)nc3ccccc23)cc1`, the cell number change is -23.3%. Besides, the AC50 under setting [2] is 16.4 µM [falling, partial curve, poor fit].

Consider `CCOC(=O)c1ccc(NC(=O)Nc2ncc(Cl)cc2Cl)cc1`, for which the cell number change turned out to be 4.12%. Further, under setting [2], the AC50 is 0.651 µM [rising, full curve, poor fit].

`O=C(CCS(=O)(=O)c1ccccc1)Nc1ccc(Cl)cn1`: the cell number change was -17.1%.

On to `CC(C)NC(=O)CSc1nccc(-c2cccs2)n1`, for which the cell number change was -8.45%. The AC50 under setting [1] is 6.51 µM [falling, single point]. For the same compound, under setting [2], the AC50 is 6.51 µM [falling, partial curve].

In the case of `Cc1ccc(NC(=O)NNc2cccc(Cl)n2)cc1`, the cell number change is -10.7%. In addition, the concentration at half-maximal activity (AC50) under setting [2] is 23.1 µM [falling, single point].

Regarding `CN(c1ccccc1C(=O)O)S(=O)(=O)c1ccc2[nH]c(=O)[nH]c2c1`, the cell number change was 24.4%.

Take `O=S(=O)(Nc1ccc(Cl)c(C(F)(F)F)c1)c1cnc[nH]1`: the cell number change was -23.6%. In addition, under setting [1], the AC50 is 0.82 µM [falling, full curve, poor fit]. Under setting [2], the AC50 is 0.92 µM [falling, full curve, poor fit].

For `COc1ccc(NC(=O)c2ccccc2NS(=O)(=O)c2ccc(C)cc2)c([N+](=O)[O-])c1`, the cell number change was -41.2%. Besides, the AC50 under setting [1] was 29.1 µM [falling, single point]. Moreover, the concentration at half-maximal activity (AC50) under setting [2] is 5.8 µM [falling, partial curve].

Consider `Cc1cc(OC(=O)c2cccs2)ccc1C(C)C`, for which the cell number change is -42.1%. Further, under setting [1], the AC50 is 29.1 µM [falling, single point]. Besides, the AC50 under setting [2] was 3.66 µM [falling, full curve].

Take `Cc1ccccc1NC(=O)c1sc2nc(N3CCOCC3)c3c(c2c1N)CCCC3`: the cell number change came out at 2.36%. Moreover, the AC50 under setting [2] was 0.58 µM [rising, single point].

As for `O=C(CNS(=O)(=O)c1ccc(Br)cc1)OCc1cc(=O)n2cc(Br)ccc2n1`, the cell number change turned out to be 23.8%. For the same compound, the AC50 under setting [2] is 11.6 µM [rising, partial curve, poor fit].

On to `COc1ccccc1/C=C/C(=O)N1CCCC1`, for which the cell number change was -12.9%. Further, the AC50 under setting [2] was 20.6 µM [falling, partial curve].

Source of the values: PubChem BioAssay AID2685 (National Center for Advancing Translational Sciences (NCATS), 2010).
